# Results published in patent US12083159B2, “Antibacterial compositions, methods of making and use thereof” (MOREHOUSE SCHOOL OF MEDICINE, priority 2011, dated 2024).
# By UniProt entry, the sequences of proteins in these tests, tags left out. Residues count along the entry.
# UniProt P38646, 47-679: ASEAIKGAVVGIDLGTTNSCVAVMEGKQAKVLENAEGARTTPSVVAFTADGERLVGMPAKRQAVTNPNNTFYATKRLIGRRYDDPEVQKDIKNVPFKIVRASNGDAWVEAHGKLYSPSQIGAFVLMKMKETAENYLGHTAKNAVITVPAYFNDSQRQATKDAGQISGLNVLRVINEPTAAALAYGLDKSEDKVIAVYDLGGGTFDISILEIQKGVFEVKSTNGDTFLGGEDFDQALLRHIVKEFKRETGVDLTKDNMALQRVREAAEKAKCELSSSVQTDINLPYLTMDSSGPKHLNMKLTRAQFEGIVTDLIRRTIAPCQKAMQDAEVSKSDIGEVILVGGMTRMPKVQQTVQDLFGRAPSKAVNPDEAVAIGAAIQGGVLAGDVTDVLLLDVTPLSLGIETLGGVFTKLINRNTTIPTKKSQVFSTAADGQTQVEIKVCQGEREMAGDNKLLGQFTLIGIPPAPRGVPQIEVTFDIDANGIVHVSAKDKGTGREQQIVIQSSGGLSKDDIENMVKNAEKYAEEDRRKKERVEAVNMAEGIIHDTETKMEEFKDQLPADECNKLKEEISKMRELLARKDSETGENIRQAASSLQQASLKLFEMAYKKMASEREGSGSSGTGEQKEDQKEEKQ
# UniProt P0A6Y8, whole entry: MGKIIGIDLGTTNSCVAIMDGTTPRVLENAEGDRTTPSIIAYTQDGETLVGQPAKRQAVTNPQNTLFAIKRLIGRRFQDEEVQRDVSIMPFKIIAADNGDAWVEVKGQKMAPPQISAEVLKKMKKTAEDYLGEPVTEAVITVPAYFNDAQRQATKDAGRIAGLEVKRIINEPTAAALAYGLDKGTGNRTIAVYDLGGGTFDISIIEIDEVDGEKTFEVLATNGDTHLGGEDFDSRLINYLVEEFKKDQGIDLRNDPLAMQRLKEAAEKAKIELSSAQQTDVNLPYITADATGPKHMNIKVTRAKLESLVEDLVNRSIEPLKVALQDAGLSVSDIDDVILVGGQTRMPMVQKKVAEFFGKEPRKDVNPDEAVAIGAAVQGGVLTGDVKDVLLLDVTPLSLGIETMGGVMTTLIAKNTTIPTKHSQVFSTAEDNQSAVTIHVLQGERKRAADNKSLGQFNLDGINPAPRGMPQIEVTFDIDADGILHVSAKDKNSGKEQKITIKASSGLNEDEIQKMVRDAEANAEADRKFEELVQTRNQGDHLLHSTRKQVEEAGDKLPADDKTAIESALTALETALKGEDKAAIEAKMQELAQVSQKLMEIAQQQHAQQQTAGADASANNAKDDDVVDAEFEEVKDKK
# Part of at least one peptide drawing is inferred or uncertain, most often the ends. Where no end group is shown, it is not given here.
# Legend:
# Mortalin = biological target: T1, Mortalin (Homo sapiens, UniProt P38646); assay: Immunoprecipitation of Jurkat cell proteins with SMR peptide as bait, α-mortalin Western; format: binding; conditions: Jurkat cell lysate
# T1 construct: The SMRwt peptide (lane 1) was used to immunoprecipitate Jurkat cell proteins; endogenous in cells; host or cells: Jurkat cells (lysate)
# [1] = test system: E. coli transformed with pUC-4K (KAN+); assay: Bacterial survival/growth with peptide, plated on LB+KAN plates, colony count; format: cell-based; conditions: for effect on bacterial survival: SMRmut up to 150-fold the SMRwt MBC50; for MDC50: KANAMYCIN/pUC18 or pUC4-K, 6 hour exposure
# [2] = test system: E. coli transformed with pUC18 (AMP+); assay: Bacterial survival/growth with peptide, plated on LB+AMP plates, colony count; format: cell-based; conditions: for effect on bacterial survival: SMRmut up to 282-fold the SMRwt MBC50; for MDC50: AMPICILLIN/pUC18, 6 hour exposure
# E. coli DnaK = biological target: T2, E. coli DnaK (Escherichia coli, UniProt P0A6Y8); assay: Immunoprecipitation of E. coli lysate with ANTI-FLAG M2 Affinity Gel plus peptide, DnaK Western; format: binding; conditions: 1 μg peptide, 1 mg E. coli lysate
# T2 construct: endogenous in cells
# [3] = test system: MDA-MB-231 breast cancer cells; assay: Tumor exosome release, extracellular AchE by Western; format: cell-based; conditions: MDA-MB-231, increasing peptide concentrations
# [4] = test system: E. coli transformed with pUC-4K (KAN+); assay: Bacterial survival/growth with peptide, plated on antibiotic free LB plates, colony count; format: cell-based; conditions: for MDC50: KANAMYCIN/pUC18 or pUC4-K, 12 hr exposure
# [5] = test system: E. coli transformed with pUC18 (AMP+); assay: as above; format: cell-based
Sequence,co-immunoprecipitation of Mortalin with peptide (Mortalin),"effect on bacterial survival ([1]; in the presence of KAN, 6 hrs)","effect on bacterial survival ([2]; in the presence of AMP, 6 hrs)",complex with DnaK protein (co-elution) (E. coli DnaK; listed as SMRmut peptide),complex with DnaK protein (co-elution) (E. coli DnaK; listed as negative control peptide),tumor exosome release [3],MDC50 ([1]; grown on Kanamycin plates),MDC50 ([1]; plated on antibiotic plates),"MBC50 ([1]; in the presence of KAN, 6 hrs)",MDC50 ([2]; grown on Ampicillin plates),MDC50 ([2]; plated on antibiotic plates),"MBC50 ([2]; in the presence of AMP, 6 hrs) [µM]",MDC50 ([4]; grown on L-Plates),MDC50 ([4]; plated on LB plates),"effect on survival/growth of the cells ([4]; drug free, 12 hrs)","MCD50 ([5]; AMPICILLIN/pUC18, 12 hr exposure, grown on L-Plates)","MDC50 ([5]; AMPICILLIN/pUC18, 12 hr exposure, plated on LB plates)","effect on survival/growth of the cells ([5]; drug free, 12 hrs)",complex with DnaK protein (co-elution) (E. coli DnaK)
"AGFPVAAAGFPVDYKDDDDK [SMRmut, reference compound]",failed to react,no effect,virtually no effect,no detectable Dnak protein was eluted,negligible binding,–,–,–,–,–,–,–,–,–,–,–,–,–,–
VGFPVAAVGFPVDYKDDDDK [SMRwt],co-immunoprecipitated,negatively affected bacterial survival,negatively affected bacterial survival,–,–,disrupts tumor exosome release,MDC50 = 308.58 nM,MDC50 = 0.865 μg/ml,about 308.6 nM,MDC50 = 164.74 nM,MDC50 = 0.355 μg/ml,~0.1647,MDC50 = 2.03 nM,MDC50 = 4.75 ng/ml,dose-responsive effect,MCD50 = 1.565 nM,MDC50 = 2.1 ng/ml,dose-responsive effect,forms a complex
